# Among all 130,000 compounds or so, about 1,000 (0.77%) were called active. The inconclusive results got no clear call from the source; some entries with a clear call stand among them for comparison.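 Rule for the calls: active = activation at 2 µM above a set limit, confirmed on inspection of the cell images; inconclusive = above the set limit but not confirmed on image inspection; inactive = the rest.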
# Experiment: activators of insulin promoter-driven GFP, primary screen, imaging, TRM-6 cells (human fetal islet line), eGFP reporter, cell count (AID 1296;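 note: share of cells whose green reporter signal exceeds an intensity cutoff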)
# Details: at 2 µM, hits give high values, plate-scaled: unstimulated 0, stimulated control 100
# How it was run: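 System – TRM-6 insulin promoter–eGFP reporter cells · Probe or stimulus – 0.75 µM tamoxifen as reporter inducer · Dosing – single-point 2 µM compound dose · Incubation – tamoxifen pre-incubation 15 h overnight, then compound exposure 48 h at 37 °C · Measured by – fixed-cell fluorescence microscopy, eGFP plus Hoechst · Evaluation – percent GFP-positive cells normalized to per-plate controls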
row,Compound,activation
1,CCn1c(=O)cc(OCC(=O)NCCc2cccc(C)c2)c2ccccc21,active: 129%
2,CCOC(=O)N1CCN(C(=O)C(c2ccccc2)c2ccccc2)CC1,inconclusive: 400%
3,COC(=O)c1ccc(NC(=O)CSc2nnc(C)n2-c2ccccc2)cc1,inconclusive: 462%
4,O=C(/C=C/c1ccco1)Oc1cc(Br)cc(/C=N/NC(=O)c2ccccc2O)c1,inactive: 3.85%
5,c1cc2nc(C34CC5CC(CC(C5)C3)C4)[nH]c2cn1,inconclusive: 314%
6,Cc1ccc(-c2nnc(SCC(=O)NC3CCS(=O)(=O)C3)nc2-c2ccc(C)cc2)cc1 (centres undefined),inactive: 0%
7,O=C(CSc1nnc(-c2ccccc2)n1C1CCCCC1)N1CCCC1,inconclusive: 55.9%
8,COC(=O)C1=C(C)N(c2ccc(S(N)(=O)=O)cc2)C(=O)C1,inconclusive: 493%
9,CCOC(=O)N1CCN(CC(O)COc2cc(C)ccc2C(C)C)CC1 (centres undefined),inconclusive: 442%
10,Cc1ccc2cccc(OCC(=O)N3CC(C)CC(C)C3)c2n1 (centres undefined),inconclusive: 209%
11,NC(=O)C1(N2CCCCC2)CCN(CC(=O)Nc2cc(Cl)ccc2Cl)CC1,inconclusive: 57.5%
12,CCOC(=O)c1nnsc1NC(C)=O,inconclusive: 138%
13,COCC(=O)OCC(=O)Nc1cc([N+](=O)[O-])ccc1Cl,active: 733%
14,CN(C)c1ccc(NC(=O)CC2NCCNC2=O)cc1 (centres undefined),active: 488%
15,CC1(C)Cc2ccccc2/C(=C/C(=O)N2CCCCCC2)N1,active: 557%
16,Cc1ccc(NS(=O)(=O)N(C)C)cc1,inconclusive: 410%
17,O=C1c2ccccc2C(=O)c2c1oc(C(F)(F)F)c2C(=O)c1ccccc1,inactive: 0%
18,CC(=O)Nc1ccc(S(=O)(=O)Nc2nc3c(s2)CCCC3)cc1,inconclusive: 75.7%
19,COc1ccc(N2C(N)=NC(N)=NC2(C)C)cc1,inconclusive: 88.9%
20,COc1ccccc1S(=O)(=O)Nc1cc(S(=O)(=O)N2CCCCC2)ccc1N1CCOCC1,inconclusive: 94.1%
21,CC(C)=NNC(=O)CN1C(=O)NC2NC(=O)NC21 (centres undefined),inactive: 3.23%
22,Nc1ccc(S(=O)(=O)Nc2ccc(S(N)(=O)=O)cc2)cc1,inconclusive: 160%
23,COC(=O)c1[nH]c2ccccc2c1NC(=O)CN1CCCc2ccccc21,active: 209%
24,C/C(=N\Nc1ccc([N+](=O)[O-])cc1)c1cc2ccccc2o1,inconclusive: 347%

# In the list so far, these have two or more sulfur atoms.
row,Compound,activation
6,Cc1ccc(-c2nnc(SCC(=O)NC3CCS(=O)(=O)C3)nc2-c2ccc(C)cc2)cc1 (centres undefined),inactive: 0%
18,CC(=O)Nc1ccc(S(=O)(=O)Nc2nc3c(s2)CCCC3)cc1,inconclusive: 75.7%
20,COc1ccccc1S(=O)(=O)Nc1cc(S(=O)(=O)N2CCCCC2)ccc1N1CCOCC1,inconclusive: 94.1%
22,Nc1ccc(S(=O)(=O)Nc2ccc(S(N)(=O)=O)cc2)cc1,inconclusive: 160%

# The results go on:

row,Compound,activation
1,CCCS(=O)(=O)N1CCC(C(=O)NCc2ccc3c(c2)OCO3)CC1,inactive: 0%
2,O=C(Nc1ccc(Br)cc1)c1ccco1,active: 557%
3,O=C(Nc1ccccc1)C(O)C(O)C(=O)Nc1ccccc1 (centres undefined),inactive: -4.76%
4,Cc1cc(C)c(NC2=CC(=O)CC(C)(C)C2)c(C#N)c1,inactive: -7.14%
5,Cc1nnc(SCC(=O)N(Cc2ccccc2)C(C)C)n1-c1ccccc1,inconclusive: 75%
6,CCCC(C)NC(=S)Nc1cc(C)cc(C)c1 (centres undefined),inactive: 0%
7,O=C1CC(N2CCN(c3ccccn3)CC2)C(=O)N1c1ccc(F)cc1 (centres undefined),inconclusive: 754%
8,Cc1ccc(C)c(OCCn2cc(/C=C(/C#N)C(=O)NCC3CCCO3)c3ccccc32)c1 (centres undefined),inconclusive: 88%
9,COC(=O)c1cc(C(=O)OC)n(Cc2ccc(F)cc2)n1,inconclusive: 408%
10,CC(=O)c1c(NC(=O)c2ccccc2)[nH]c(-c2ccccc2)nc1=S,inconclusive: 210%
11,C[C@H](NC(=O)c1ccccc1Cl)C(=O)NCc1cccs1,inactive: -7.14%
12,CSCC[C@H](NC(=O)CCn1nnc2ccccc2c1=O)C(=O)O,active: 150%
13,COC(=O)c1sccc1NC(=O)CN(C)NS(=O)(=O)c1ccc(F)cc1,inactive: 3.57%
14,Fc1ccc(COc2ccc(Cl)cc2/C=N/Nc2nc(N3CCCC3)nc(N3CCCC3)n2)cc1,active: 658%
15,Cc1ccc(C2=[N+]([O-])C3(CCCCC/C3=N\NC(N)=S)N(O)C2(C)C)o1 (centres undefined),inactive: 8.7%
16,O=C1CN(CC(=O)Nc2cccc(Cl)c2Cl)c2ccccc2N1,inconclusive: 220%
17,COc1ccc(CNC(=S)Nc2cccc(C)c2C)cc1,inactive: 0%
18,C=CCc1c(C)nc(SC)nc1Nc1ccccc1,inconclusive: 408%
19,CC(=O)Nc1ccc(-n2cnnn2)cc1,active: 512%
20,O=c1c(Cl)c(Cl)cnn1Cc1ccccc1Cl,inconclusive: 669% [cytotoxic]
21,CCOC(=O)CSC1=C(C#N)C(c2sccc2C)CC(=O)N1 (centres undefined),inconclusive: 164% [cytotoxic]
22,CC(C)CN1CN(S(=O)(=O)c2cccs2)c2nc3ccccc3nc21,inactive: 0%
23,COc1ccc(CNC(=O)C(c2ccco2)N(Cc2cccs2)C(=O)Cc2cccs2)cc1 (centres undefined),active: 80%
24,COc1ccc(-c2cnnc(N/N=C/c3ccc(-c4ccc([N+](=O)[O-])cc4)o3)n2)cc1,inconclusive: 175% [cytotoxic]

row,Compound,activation
1,CN(C)c1ccc2nc3ccc(=[N+](C)C)cc-3sc2c1,inconclusive: 106%
2,O=C(NNC(=O)c1ccc([N+](=O)[O-])cc1Cl)c1ccncc1,inactive: -7.89%
3,O=C(NC1CCCC1)C(c1ccccc1)N(Cc1ccc2c(c1)OCO2)C(=O)Cc1cccs1 (centres undefined),inactive: 246%
4,COc1ccc(C(=O)Cn2c(NCCO)nc3ccccc32)cc1OC,inactive: -86.7%
5,C=CCn1c(=O)c2ccccc2n2c(SCc3nc4ccccc4s3)nnc12,inconclusive: 93.8%
6,S=c1[nH]nc(-c2ccco2)n1Cc1ccccc1,active: 407%
7,CC(C)(C)C(=O)Cn1c[n+](N)cn1,inconclusive: 132%
8,CC1(C)OC(=O)CC1C(=O)NCc1ccccc1 (centres undefined),inconclusive: 513%
9,COc1ccc(Oc2nc(SC)nc3ccsc23)cc1,inactive: -6.67%
10,COc1cc(OC)c(-c2cc(C(=O)O)ccc2OC)c(OC)c1,inactive: 0%
11,C=CCn1c(CSc2nc3ccccc3s2)nnc1SCC(=O)NCc1cccnc1,inconclusive: 400%
12,C#CCN1C(=O)S/C(=C/C=C/c2ccc(N(C)C)cc2)C1=O,active: 270%
13,CSc1nn2c(C)c(C)c(C)nc2c1C#N,active: 322%
14,CCN(CC)c1ccc(N2C(=O)/C(=C/c3cccnc3)SC2=S)cc1,inactive: 9.68%
15,Cc1cccc(-n2c(-c3ccco3)n[nH]c2=S)c1,inactive: -8.33%
16,CCOC(=O)Nc1nc(-c2ccccc2)c(C(=O)c2ccc(Cl)cc2)s1,inconclusive: 82.9% [cytotoxic]
17,Cc1ccccc1CN1CCN(S(C)(=O)=O)CC1,active: 444%
18,CCOC(=O)c1[nH]cc(-c2ccccc2)c1N1CCOCC1,inconclusive: 485%
19,Cn1c(N2C(=O)CC(Cc3ccccc3)C2=O)nc2ccccc21 (centres undefined),inconclusive: 408%
20,Cc1[nH]c2ccc(F)cc2c1CCN(Cc1ccco1)C(=S)NC(C)(C)C,active: 347%
21,CCN(CC(=O)Nc1cccc(C#N)c1)CC(=O)Nc1cccc(OC)c1,inconclusive: 150%
22,CC(=O)Nc1ccc(NC(=O)C(C)O/N=C/c2cccc([N+](=O)[O-])c2)cc1 (centres undefined),inactive: -8.11%
23,CCCOCCOC(=O)c1[nH]c2c(c1C)C(=O)CC(c1cc(OC)ccc1OC)C2 (centres undefined),inconclusive: 175%
24,N#CC(C#N)=C1C=CC=CN1/C(=C\c1ccccc1Cl)C(=O)c1ccccc1,inconclusive: 261%

row,Compound,activation
1,O=C(Nc1ccc(Cl)cn1)C1COc2ccccc2O1 (centres undefined),inactive: -7.14%
2,Cn1c(Cl)c(/C=N/OC(=O)c2ccccc2Cl)c2ccccc21,inconclusive: 233%
3,COc1ccc(-c2cc(C(=O)NNC(=S)NC(=O)c3c(-c4ccccc4)noc3C)[nH]n2)cc1,inconclusive: 376%
4,CCOC(=O)c1cccc(COC(=O)c2cccc(-c3nnc(-c4ccccc4)o3)c2)c1,inconclusive: 413%
5,CCOC(=O)CN1N=C(/C=C/c2ccc(OC)cc2)CCC1=O,inconclusive: 143%
6,Cc1cc(=O)oc(C)c1C(=O)N1CCCCC1,inactive: 5.26%
7,CC1=CN2C(=NC(=O)CC2(C)C(=O)N(CC(=O)NC2CCCC2)c2ccccc2C)C=C1 (centres undefined),inconclusive: 431%
8,Cc1ccc(N2CC(C(N)=O)CC2=O)cc1C (centres undefined),active: 543%
9,O=C1CN(C(=O)c2cc([N+](=O)[O-])ccc2Cl)C(c2ccc(F)cc2)c2cc(F)ccc2N1 (centres undefined),inconclusive: 76%
10,O=S(=O)(NCC1OCCc2ccccc21)c1ccc(S(=O)(=O)N2CCOCC2)cc1 (centres undefined),inactive: 118%
11,O=C(COc1cc(Cl)c(Cl)cc1Cl)NCCc1ccccn1,inconclusive: 200%
12,CC(=O)c1cccc(NC(=O)NC(C)c2ccncc2)c1 (centres undefined),inconclusive: 129%
13,CC1CCCC(N2CCN(C(=O)c3cccc(F)c3)CC2)C1 (centres undefined),inactive: -85.7%
14,Cc1onc(-c2ccccc2Cl)c1C(=O)Nc1cccnc1,inconclusive: 426%
15,C=CCn1c(Sc2ccccc2)nc2c1c(=O)[nH]c(=O)n2C,inconclusive: 477%
16,Cc1[nH]c2ccccc2c1/C=N/Nc1ccc([N+](=O)[O-])cc1S(=O)(=O)Nc1ccc(Cl)cc1,inconclusive: 127%
17,Cc1cc(C(=O)COC(=O)c2ccc([N+](=O)[O-])o2)c(C)n1CC1CCCO1 (centres undefined),inactive: 7.14%
18,C1CCC(NC2=NCCC2)CC1,inconclusive: 76.5%
19,CS(=O)(=O)c1ccc(S(=O)CC(=O)Oc2ccc(Cl)cc2)c([N+](=O)[O-])c1 (centres undefined),inconclusive: 240% [cytotoxic]
20,CCOc1ccc(C2=CS/C(=C(\C#N)c3nnc4n3CCCCC4)N2CC)cc1,inconclusive: 403%
21,O=C(O)CCSc1nc2ccccc2c(=O)[nH]1,inconclusive: 438%
22,CC1CCCN(C(=O)CSc2nnc(-c3ccncc3)n2C)C1 (centres undefined),inconclusive: 258%
